Reference: PMC5800702
Results are given in words; binding and its absence hold for the method and conditions named. In cells and extracts the contact can be indirect. Some results given as binding are weak or reduced against the parent protein; the word gives no strength. For some assays here: Sequences can lack the tags named with a protein.

The chains behind the UniProt entries cited, without tags or fusion partners. Where a name states a change or a piece, a line headed by the entry shows the natural chain unless it says otherwise. A line that says so, or that is headed by a name, gives the form on record, which may keep a tag or linker.
VVD-V5 (Q9C3Y6, form named): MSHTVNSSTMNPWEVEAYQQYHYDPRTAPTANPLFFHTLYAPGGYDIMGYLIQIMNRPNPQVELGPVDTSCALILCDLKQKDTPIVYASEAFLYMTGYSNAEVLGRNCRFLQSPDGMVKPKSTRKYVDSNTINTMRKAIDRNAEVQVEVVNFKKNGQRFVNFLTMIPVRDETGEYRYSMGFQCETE
UniProt Q01371: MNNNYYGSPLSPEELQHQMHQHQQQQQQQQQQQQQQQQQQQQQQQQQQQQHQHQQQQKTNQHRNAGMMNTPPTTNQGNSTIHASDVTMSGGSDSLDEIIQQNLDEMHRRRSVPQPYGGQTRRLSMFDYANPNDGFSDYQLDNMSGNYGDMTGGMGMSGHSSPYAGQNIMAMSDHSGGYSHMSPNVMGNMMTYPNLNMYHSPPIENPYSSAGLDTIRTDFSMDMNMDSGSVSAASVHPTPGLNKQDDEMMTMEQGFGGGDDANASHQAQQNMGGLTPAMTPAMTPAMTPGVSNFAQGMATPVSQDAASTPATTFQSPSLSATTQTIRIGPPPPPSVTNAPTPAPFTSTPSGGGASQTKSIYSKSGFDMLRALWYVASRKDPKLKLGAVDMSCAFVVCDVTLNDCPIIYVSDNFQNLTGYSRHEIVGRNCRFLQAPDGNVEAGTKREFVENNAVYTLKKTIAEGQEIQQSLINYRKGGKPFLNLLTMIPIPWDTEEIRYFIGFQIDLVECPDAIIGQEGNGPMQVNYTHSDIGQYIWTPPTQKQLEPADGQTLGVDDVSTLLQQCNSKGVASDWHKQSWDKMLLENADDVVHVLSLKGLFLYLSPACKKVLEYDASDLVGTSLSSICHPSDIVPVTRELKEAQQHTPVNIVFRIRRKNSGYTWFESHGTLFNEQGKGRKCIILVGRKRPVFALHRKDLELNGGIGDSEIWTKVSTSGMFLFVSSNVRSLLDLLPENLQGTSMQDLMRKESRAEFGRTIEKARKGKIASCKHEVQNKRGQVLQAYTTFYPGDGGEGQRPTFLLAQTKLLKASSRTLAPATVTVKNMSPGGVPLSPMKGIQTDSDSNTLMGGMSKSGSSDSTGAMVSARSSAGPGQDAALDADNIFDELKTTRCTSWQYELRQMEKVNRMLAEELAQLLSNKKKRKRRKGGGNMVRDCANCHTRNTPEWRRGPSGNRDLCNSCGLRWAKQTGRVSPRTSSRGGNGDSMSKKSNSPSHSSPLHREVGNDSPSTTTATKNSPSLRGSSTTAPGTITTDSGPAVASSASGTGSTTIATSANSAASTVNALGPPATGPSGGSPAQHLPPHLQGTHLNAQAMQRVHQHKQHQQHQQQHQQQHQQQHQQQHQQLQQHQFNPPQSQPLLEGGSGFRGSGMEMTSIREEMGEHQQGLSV

Key:
[1] = target: VVD-V5 (Neurospora crassa) (UniProt Q9C3Y6); assay: co-IP; VVD-V5 precipitated with anti-V5 agarose beads at LP60min from vvd^V5 (2mg) and vvd^V5, Δcsp-6 (6mg) extracts; blot with WC-1 antibody; ras-1^bd as negative control
[2] = target: T1, V5-tagged ADV-1 (Neurospora crassa) (UniProt Q9P326); assay: co-IP; DSP crosslinking, constant LL; V5-tagged ADV-1 precipitated with anti-V5 agarose beads from adv-1^V5 (2mg) and adv-1^V5, Δcsp-6 (6mg); WC-1 detected with anti-WC-1 antibody
T1 sequence: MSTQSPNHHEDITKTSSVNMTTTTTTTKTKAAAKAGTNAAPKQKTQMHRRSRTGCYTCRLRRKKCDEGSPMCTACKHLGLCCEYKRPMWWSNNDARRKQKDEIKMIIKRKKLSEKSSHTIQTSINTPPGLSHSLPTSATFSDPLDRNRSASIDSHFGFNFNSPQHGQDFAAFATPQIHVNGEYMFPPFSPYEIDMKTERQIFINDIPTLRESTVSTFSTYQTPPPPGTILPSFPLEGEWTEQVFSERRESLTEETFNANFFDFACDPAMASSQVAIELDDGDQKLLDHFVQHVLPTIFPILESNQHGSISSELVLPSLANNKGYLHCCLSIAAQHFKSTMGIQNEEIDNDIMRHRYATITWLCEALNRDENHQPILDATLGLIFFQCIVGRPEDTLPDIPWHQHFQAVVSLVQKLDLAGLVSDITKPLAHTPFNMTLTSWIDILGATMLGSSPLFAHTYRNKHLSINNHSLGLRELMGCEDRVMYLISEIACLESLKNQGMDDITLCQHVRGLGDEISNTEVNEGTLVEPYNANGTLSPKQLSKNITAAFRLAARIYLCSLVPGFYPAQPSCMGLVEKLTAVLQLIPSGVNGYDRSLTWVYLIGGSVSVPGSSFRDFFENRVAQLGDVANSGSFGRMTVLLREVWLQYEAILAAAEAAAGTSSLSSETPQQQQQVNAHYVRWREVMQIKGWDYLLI

White Collar-1 (from UniProt Q01371 1-1167)
binding [1]: binds | binding [2]: binds
